Data taken from paper doi:10.1101/2022.03.23.485504.
Results are given in words; binding and its absence hold for the method and conditions named. Some binding calls cover weakened binding; strength is not graded here.

Amino acid sequences for entries named in this document (tags omitted).
UniProt P61956: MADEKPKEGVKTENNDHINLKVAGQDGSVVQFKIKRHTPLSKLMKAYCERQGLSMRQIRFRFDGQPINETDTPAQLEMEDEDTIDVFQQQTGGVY

Target: recombinant SUMO2 (rSUMO2) (human) (UniProt P61956)
Experiment: cross-linking

binding: binds weakly
B1: recombinant SUMO4-WT (rSUMO4-WT) (protein, UniProt Q6EEV6 1-95)
chain: MANEKPTEEVKTENNNHINLKVAGQDGSVVQFKIKRQTPLSKLMKAYCEPRGLSVKQIRFRFGGQPISGTDKPAQLEMEDEDTIDVFQQPTGGVY
